Assay: Parahydrogen hydrogenation (PHIP-SAH), polarization transfer, hyperpolarized 13C NMR
Conditions: 10 seconds

Row | Structure (SMILES) | polarization of the thiopyruvate-C-1 (after parahydrogen hydrogenation in acetone-d6, starting concentration 60 mM, 6 mM Rh(dppb)(COD)BF4, 50° C./10 bar, 13C signal at 161.02 ppm) [%] | polarization of thiopyruvate-C-2 (after parahydrogen hydrogenation in acetone-d6, starting concentration 60 mM, 6 mM Rh(dppb)(COD)BF4, 50° C./10 bar, 13C signal at 190.80 ppm) [%] | polarization of the ester group in the side-arm (after parahydrogen hydrogenation in acetone-d6, starting concentration 110 mM, 3 mM Rh(dppb)(COD)BF4, 50° C./10 bar, 13C signal at 165.48 ppm) [%] | polarization of the thiopyruvate-C-1 (after parahydrogen hydrogenation in acetone-d6, starting concentration 110 mM, 3 mM Rh(dppb)(COD)BF4, 50° C./10 bar, 13C signal at 194.69 ppm) [%]
1 | CC(=O)C(=O)SCC#Cc1ccccc1 [S-(3-phenylprop-2-yn-1-yl) 2-oxopropanethioate] | 4.3 | 4.0 |  | 
2 | CC(=O)C(=O)SCC#CC(=O)OC(C)(C)C [tert-butyl 4-((2-oxopropanoyl)thio)but-2-ynoate] |  |  | 10.7 | 7.7
